These are yes or no findings as the source states them, for the method shown. In cells and extracts the contact can be indirect. Some results given as binding are weak or reduced against the parent protein; the word gives no strength.

Sequences of proteins named here, by UniProt entry; tags and fusion partners are left off.
UniProt E9Q2Z1: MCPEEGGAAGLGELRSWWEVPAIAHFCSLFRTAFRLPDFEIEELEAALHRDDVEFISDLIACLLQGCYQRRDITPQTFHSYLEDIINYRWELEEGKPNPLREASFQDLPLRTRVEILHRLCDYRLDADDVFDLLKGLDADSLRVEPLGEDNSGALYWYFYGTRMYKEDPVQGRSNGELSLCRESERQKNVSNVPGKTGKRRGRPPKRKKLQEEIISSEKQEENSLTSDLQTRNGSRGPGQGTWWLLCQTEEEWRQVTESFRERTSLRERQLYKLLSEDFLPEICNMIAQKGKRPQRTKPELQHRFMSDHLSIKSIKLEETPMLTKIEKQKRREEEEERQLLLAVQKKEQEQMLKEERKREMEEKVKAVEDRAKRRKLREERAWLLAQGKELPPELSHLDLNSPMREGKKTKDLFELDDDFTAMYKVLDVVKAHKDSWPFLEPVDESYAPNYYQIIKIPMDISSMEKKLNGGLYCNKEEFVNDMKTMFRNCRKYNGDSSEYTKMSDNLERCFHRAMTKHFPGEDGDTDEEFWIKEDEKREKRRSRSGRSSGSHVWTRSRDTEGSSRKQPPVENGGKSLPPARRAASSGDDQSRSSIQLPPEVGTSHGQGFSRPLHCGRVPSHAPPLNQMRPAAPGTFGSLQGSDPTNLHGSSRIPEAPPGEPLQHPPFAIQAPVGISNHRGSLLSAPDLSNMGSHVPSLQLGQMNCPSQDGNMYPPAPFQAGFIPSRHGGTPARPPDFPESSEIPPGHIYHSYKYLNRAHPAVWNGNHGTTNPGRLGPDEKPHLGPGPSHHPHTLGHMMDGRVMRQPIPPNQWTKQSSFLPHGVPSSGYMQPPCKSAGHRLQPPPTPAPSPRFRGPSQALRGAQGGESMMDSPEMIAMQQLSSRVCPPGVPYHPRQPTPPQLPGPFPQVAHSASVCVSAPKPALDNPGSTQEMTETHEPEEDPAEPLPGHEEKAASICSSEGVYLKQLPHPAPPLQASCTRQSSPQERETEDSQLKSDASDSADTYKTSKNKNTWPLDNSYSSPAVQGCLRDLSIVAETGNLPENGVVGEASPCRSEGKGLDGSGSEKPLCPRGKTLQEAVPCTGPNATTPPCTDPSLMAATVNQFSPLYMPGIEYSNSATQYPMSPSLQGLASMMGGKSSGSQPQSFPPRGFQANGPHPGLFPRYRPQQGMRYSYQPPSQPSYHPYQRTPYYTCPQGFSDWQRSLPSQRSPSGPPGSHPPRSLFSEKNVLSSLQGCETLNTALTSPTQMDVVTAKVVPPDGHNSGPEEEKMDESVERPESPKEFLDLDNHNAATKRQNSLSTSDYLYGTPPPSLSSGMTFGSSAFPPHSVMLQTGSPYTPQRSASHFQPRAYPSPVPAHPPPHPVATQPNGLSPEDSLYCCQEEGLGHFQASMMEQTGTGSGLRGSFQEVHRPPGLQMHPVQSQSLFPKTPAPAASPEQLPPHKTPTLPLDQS
UniProt Q6PGB8: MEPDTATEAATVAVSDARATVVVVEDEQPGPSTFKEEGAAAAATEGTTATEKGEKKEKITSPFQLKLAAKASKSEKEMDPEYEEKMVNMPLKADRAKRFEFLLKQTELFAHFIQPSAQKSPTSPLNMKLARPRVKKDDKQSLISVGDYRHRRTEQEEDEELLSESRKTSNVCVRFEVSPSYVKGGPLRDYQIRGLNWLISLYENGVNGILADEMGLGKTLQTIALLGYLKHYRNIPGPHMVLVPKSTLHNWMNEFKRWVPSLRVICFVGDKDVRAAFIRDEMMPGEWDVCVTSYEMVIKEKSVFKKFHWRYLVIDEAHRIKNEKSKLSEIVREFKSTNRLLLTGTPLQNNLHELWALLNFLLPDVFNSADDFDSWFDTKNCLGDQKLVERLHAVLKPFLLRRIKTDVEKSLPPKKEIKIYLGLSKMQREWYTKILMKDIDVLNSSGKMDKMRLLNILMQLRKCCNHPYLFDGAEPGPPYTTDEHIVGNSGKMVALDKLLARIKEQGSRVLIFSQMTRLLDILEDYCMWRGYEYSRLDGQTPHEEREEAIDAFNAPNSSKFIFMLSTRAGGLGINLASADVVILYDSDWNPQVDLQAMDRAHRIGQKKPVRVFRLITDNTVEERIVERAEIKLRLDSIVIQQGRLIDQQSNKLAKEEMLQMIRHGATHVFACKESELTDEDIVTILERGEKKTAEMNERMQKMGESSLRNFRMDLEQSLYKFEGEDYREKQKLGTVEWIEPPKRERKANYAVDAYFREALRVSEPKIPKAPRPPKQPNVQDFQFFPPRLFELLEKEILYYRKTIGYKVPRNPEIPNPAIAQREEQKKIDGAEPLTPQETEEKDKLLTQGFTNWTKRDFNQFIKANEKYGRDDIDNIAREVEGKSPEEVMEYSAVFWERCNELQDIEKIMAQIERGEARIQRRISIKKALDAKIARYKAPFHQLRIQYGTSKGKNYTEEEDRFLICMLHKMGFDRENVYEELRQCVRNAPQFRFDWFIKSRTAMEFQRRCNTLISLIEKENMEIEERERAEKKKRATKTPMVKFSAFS

Data on one substance can be found in paper PMC8290069.

This experiment concerns the target CECR2 (mouse (endogenous in cerebellum)) (UniProt E9Q2Z1). As to the kind of experiment: co-IP; 500 ug P21 cerebellar lysate of WT or Ex6DEL mice, 1 ug anti-Snf2l or anti-Cecr2 antibody (control rabbit IgG) overnight at 4°C, protein A/G magnetic beads, 5 washes in 0.3% triton-X in PBS, elution with 0.1 M glycine pH 2.5, immunoblot. Background: Immunoblotting shows a protein as a band on a membrane.

On to “Snf2l protein (wild type, encoded by Smarca1) (from UniProt Q6PGB8 1-1046)”, for which the binding entry is recorded as “binds”.
